{"source": "the supplement of paper PMC8728848", "experiment_in_all_cases": "glycan array binding signal (z-score within array); higher = stronger binding", "conditions_in_all_cases": "glycan notation: IUPAC condensed, linker removed", "key": {"Fuc(a1-2)Gal": {"target": "Fuc(a1-2)Gal", "procedure,_shortened": "(§1)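 The Consortium for Functional Glycomics database supplied 3228 glycan arrays, of which those lacking an available protein sequence were dropped. The binding signal, a within-array Z-score, was averaged across arrays of the same protein sequence and across linkers. Negative scores can be read as non-binding.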"}, "Fuc(a1-2)Gal(b1-3)GalNAc": {"target": "Fuc(a1-2)Gal(b1-3)GalNAc", "procedure,_shortened": "as §1"}, "[1]": {"target": "Fuc(a1-2)Gal(b1-3)GalNAc(b1-3)Gal", "procedure,_shortened": "as §1"}, "[2]": {"target": "Fuc(a1-2)Gal(b1-3)GalNAc(b1-3)Gal(a1-4)Gal(b1-4)Glc", "procedure,_shortened": "as §1"}, "[3]": {"target": "Fuc(a1-2)Gal(b1-3)GalNAc(b1-4)[Neu5Ac(a2-3)]Gal(b1-4)Glc", "procedure,_shortened": "as §1"}, "Fuc(a1-2)Gal(b1-3)GlcNAc": {"target": "Fuc(a1-2)Gal(b1-3)GlcNAc", "procedure,_shortened": "as §1"}, "[4]": {"target": "Fuc(a1-2)Gal(b1-3)GlcNAc(b1-3)Gal(b1-4)Glc", "procedure,_shortened": "as §1"}, "[5]": {"target": "Fuc(a1-2)Gal(b1-3)[Fuc(a1-4)]GlcNAc", "procedure,_shortened": "as §1"}, "Fuc(a1-2)Gal(b1-4)Glc": {"target": "Fuc(a1-2)Gal(b1-4)Glc", "procedure,_shortened": "as §1"}, "Fuc(a1-2)Gal(b1-4)Glc6S": {"target": "Fuc(a1-2)Gal(b1-4)Glc6S", "procedure,_shortened": "as §1"}, "Fuc(a1-2)Gal(b1-4)GlcNAc": {"target": "Fuc(a1-2)Gal(b1-4)GlcNAc", "procedure,_shortened": "as §1"}, "[6]": {"target": "Fuc(a1-2)Gal(b1-4)GlcNAc(b1-3)Gal(b1-4)GlcNAc", "procedure,_shortened": "as §1"}, "[7]": {"target": "Fuc(a1-2)Gal(b1-4)GlcNAc(b1-3)Gal(b1-4)GlcNAc(b1-3)Gal(b1-4)GlcNAc", "procedure,_shortened": "as §1"}, "[8]": {"target": "Fuc(a1-2)Gal(b1-4)GlcNAc6S", "procedure,_shortened": "as §1"}, "[9]": {"target": "Fuc(a1-2)Gal(b1-4)[Fuc(a1-3)]GlcNAc", "procedure,_shortened": "as §1"}, "[10]": {"target": "Fuc(a1-2)Gal(b1-4)[Fuc(a1-3)]GlcNAc(b1-3)Gal(b1-4)[Fuc(a1-3)]GlcNAc", "procedure,_shortened": "as §1"}, "[11]": {"target": "Fuc(a1-2)Gal(b1-4)[Fuc(a1-3)]GlcNAc(b1-3)Gal(b1-4)[Fuc(a1-3)]GlcNAc(b1-3)Gal(b1-4)[Fuc(a1-3)]GlcNAc", "procedure,_shortened": "as §1"}, "Fuc(a1-2)Gal6S(b1-4)Glc": {"target": "Fuc(a1-2)Gal6S(b1-4)Glc", "procedure,_shortened": "as §1"}, "[12]": {"target": "Fuc(a1-2)Gal6S(b1-4)Glc6S", "procedure,_shortened": "as §1"}, "[13]": {"target": "Fuc(a1-2)Gal6S(b1-4)GlcNAc", "procedure,_shortened": "as §1"}, "Fuc(a1-2)GlcNAc": {"target": "Fuc(a1-2)GlcNAc", "procedure,_shortened": "as §1"}, "Fuc(a1-2)[Gal(a1-3)]Gal": {"target": "Fuc(a1-2)[Gal(a1-3)]Gal", "procedure,_shortened": "as §1"}, "[14]": {"target": "Fuc(a1-2)[Gal(a1-3)]Gal(b1-3)GlcNAc", "procedure,_shortened": "as §1"}, "[15]": {"target": "Fuc(a1-2)[Gal(a1-3)]Gal(b1-4)Glc", "procedure,_shortened": "as §1"}, "[16]": {"target": "Fuc(a1-2)[Gal(a1-3)]Gal(b1-4)GlcNAc", "procedure,_shortened": "as §1"}, "[17]": {"target": "Fuc(a1-2)[Gal(a1-3)]Gal(b1-4)[Fuc(a1-3)]GlcNAc", "procedure,_shortened": "as §1"}, "[18]": {"target": "Fuc(a1-2)[Gal(a1-4)]Gal(b1-4)GlcNAc", "procedure,_shortened": "as §1"}, "[19]": {"target": "Fuc(a1-2)[GalNAc(a1-3)]Gal", "procedure,_shortened": "as §1"}, "[20]": {"target": "Fuc(a1-2)[GalNAc(a1-3)]Gal(b1-3)GlcNAc", "procedure,_shortened": "as §1"}, "[21]": {"target": "Fuc(a1-2)[GalNAc(a1-3)]Gal(b1-4)Glc", "procedure,_shortened": "as §1"}, "[22]": {"target": "Fuc(a1-2)[GalNAc(a1-3)]Gal(b1-4)GlcNAc", "procedure,_shortened": "as §1"}, "[23]": {"target": "Fuc(a1-2)[GalNAc(a1-3)]Gal(b1-4)[Fuc(a1-3)]GlcNAc", "procedure,_shortened": "as §1"}, "[24]": {"target": "Fuc(a1-2)[GalNAc(a1-4)]Gal(b1-4)GlcNAc", "procedure,_shortened": "as §1"}, "[25]": {"target": "Fuc(a1-2)[GalNAc(b1-3)]Gal", "procedure,_shortened": "as §1"}, "Fuc(a1-3)GlcNAc": {"target": "Fuc(a1-3)GlcNAc", "procedure,_shortened": "as §1"}, "[26]": {"target": "Fuc(a1-3)[Gal(b1-4)]Glc6S", "procedure,_shortened": "as §1"}, "[27]": {"target": "Fuc(a1-3)[Gal(b1-4)]GlcNAc", "procedure,_shortened": "as §1"}, "[28]": {"target": "Fuc(a1-3)[Gal(b1-4)]GlcNAc(b1-3)Gal(b1-3)[Fuc(a1-4)]GlcNAc", "procedure,_shortened": "as §1"}, "[29]": {"target": "Fuc(a1-3)[Gal(b1-4)]GlcNAc(b1-4)Gal(b1-4)[Fuc(a1-3)]GlcNAc", "procedure,_shortened": "as §1"}, "[30]": {"target": "Fuc(a1-3)[Gal(b1-4)]GlcNAc(b1-4)Gal(b1-4)[Fuc(a1-3)]GlcNAc(b1-4)Gal(b1-4)[Fuc(a1-3)]GlcNAc", "procedure,_shortened": "as §1"}, "[31]": {"target": "Fuc(a1-3)[Gal(b1-4)]GlcNAc6S", "procedure,_shortened": "as §1"}, "[32]": {"target": "Fuc(a1-3)[Gal3S(b1-4)]Glc6S", "procedure,_shortened": "as §1"}, "[33]": {"target": "Fuc(a1-3)[Gal3S(b1-4)]GlcNAc", "procedure,_shortened": "as §1"}, "[34]": {"target": "Fuc(a1-3)[Gal3S(b1-4)]GlcNAc6S", "procedure,_shortened": "as §1"}, "[35]": {"target": "Fuc(a1-3)[GalNAc(b1-4)]GlcNAc", "procedure,_shortened": "as §1"}}, "note": "The list shows a part of the results."}
{"binder": "CTMLA2 (Anopheles gambiae), Q7Q7F8 (protein) MNLMITILIAVITVVRGDLSVPKTVDDILQQNPCLCPCKPFEEKEYFIPISRTSDWFGAVAYCHSVGMELAEVLNEDEARAMGEVIAEEESDSDDEFYWIGANDLGVQGTYRWALAGRPVLYSQWAAGEPNHARGENGQQPAERCVAVAMDKYEWNDFQCTQQKPFICQQFRKH", "values": [{"measurement": "glycan array binding signal (z-score)", "setting": "Fuc(a1-2)Gal", "value": 0.854}, {"measurement": "glycan array binding signal (z-score)", "setting": "Fuc(a1-2)Gal(b1-3)GalNAc", "value": 0.204}, {"measurement": "glycan array binding signal (z-score)", "setting": "[1]", "value": 0.243}, {"measurement": "glycan array binding signal (z-score)", "setting": "[2]", "value": 0.099}, {"measurement": "glycan array binding signal (z-score)", "setting": "[3]", "value": -0.235}, {"measurement": "glycan array binding signal (z-score)", "setting": "Fuc(a1-2)Gal(b1-3)GlcNAc", "value": -0.124}, {"measurement": "glycan array binding signal (z-score)", "setting": "[4]", "value": -0.357}, {"measurement": "glycan array binding signal (z-score)", "setting": "[5]", "value": 0.014}, {"measurement": "glycan array binding signal (z-score)", "setting": "Fuc(a1-2)Gal(b1-4)Glc", "value": 0.14}, {"measurement": "glycan array binding signal (z-score)", "setting": "Fuc(a1-2)Gal(b1-4)Glc6S", "value": -0.485}, {"measurement": "glycan array binding signal (z-score)", "setting": "Fuc(a1-2)Gal(b1-4)GlcNAc", "value": -0.282}, {"measurement": "glycan array binding signal (z-score)", "setting": "[6]", "value": -0.253}, {"measurement": "glycan array binding signal (z-score)", "setting": "[7]", "value": 0.264}, {"measurement": "glycan array binding signal (z-score)", "setting": "[8]", "value": -0.569}, {"measurement": "glycan array binding signal (z-score)", "setting": "[9]", "value": -0.269}, {"measurement": "glycan array binding signal (z-score)", "setting": "[10]", "value": -0.028}, {"measurement": "glycan array binding signal (z-score)", "setting": "[11]", "value": -0.09}, {"measurement": "glycan array binding signal (z-score)", "setting": "Fuc(a1-2)Gal6S(b1-4)Glc", "value": -0.575}, {"measurement": "glycan array binding signal (z-score)", "setting": "[12]", "value": -0.492}, {"measurement": "glycan array binding signal (z-score)", "setting": "[13]", "value": -0.3}, {"measurement": "glycan array binding signal (z-score)", "setting": "Fuc(a1-2)GlcNAc", "value": 0.212}, {"measurement": "glycan array binding signal (z-score)", "setting": "Fuc(a1-2)[Gal(a1-3)]Gal", "value": -0.094}, {"measurement": "glycan array binding signal (z-score)", "setting": "[14]", "value": 0.359}, {"measurement": "glycan array binding signal (z-score)", "setting": "[15]", "value": -0.278}, {"measurement": "glycan array binding signal (z-score)", "setting": "[16]", "value": -0.574}, {"measurement": "glycan array binding signal (z-score)", "setting": "[17]", "value": 0.265}, {"measurement": "glycan array binding signal (z-score)", "setting": "[18]", "value": -0.275}, {"measurement": "glycan array binding signal (z-score)", "setting": "[19]", "value": -0.171}, {"measurement": "glycan array binding signal (z-score)", "setting": "[20]", "value": -0.004}, {"measurement": "glycan array binding signal (z-score)", "setting": "[21]", "value": -0.519}, {"measurement": "glycan array binding signal (z-score)", "setting": "[22]", "value": -0.194}, {"measurement": "glycan array binding signal (z-score)", "setting": "[23]", "value": 0.192}, {"measurement": "glycan array binding signal (z-score)", "setting": "[24]", "value": 0.159}, {"measurement": "glycan array binding signal (z-score)", "setting": "[25]", "value": -0.102}, {"measurement": "glycan array binding signal (z-score)", "setting": "Fuc(a1-3)GlcNAc", "value": 0.239}, {"measurement": "glycan array binding signal (z-score)", "setting": "[26]", "value": -0.163}, {"measurement": "glycan array binding signal (z-score)", "setting": "[27]", "value": -0.113}, {"measurement": "glycan array binding signal (z-score)", "setting": "[28]", "value": -0.022}, {"measurement": "glycan array binding signal (z-score)", "setting": "[29]", "value": 0.419}, {"measurement": "glycan array binding signal (z-score)", "setting": "[30]", "value": -0.011}, {"measurement": "glycan array binding signal (z-score)", "setting": "[31]", "value": -0.185}, {"measurement": "glycan array binding signal (z-score)", "setting": "[32]", "value": 0.247}, {"measurement": "glycan array binding signal (z-score)", "setting": "[33]", "value": -0.137}, {"measurement": "glycan array binding signal (z-score)", "setting": "[34]", "value": 0.052}, {"measurement": "glycan array binding signal (z-score)", "setting": "[35]", "value": -0.194}]}
